From the supplement of paper PMC10849652
The other results are listed elsewhere or left out.

Chains of the proteins cited; added tags and fusions are not shown. Lines headed by an entry give the natural chain unless they say otherwise; changes in a name come on top.
UniProt Q6GYQ0: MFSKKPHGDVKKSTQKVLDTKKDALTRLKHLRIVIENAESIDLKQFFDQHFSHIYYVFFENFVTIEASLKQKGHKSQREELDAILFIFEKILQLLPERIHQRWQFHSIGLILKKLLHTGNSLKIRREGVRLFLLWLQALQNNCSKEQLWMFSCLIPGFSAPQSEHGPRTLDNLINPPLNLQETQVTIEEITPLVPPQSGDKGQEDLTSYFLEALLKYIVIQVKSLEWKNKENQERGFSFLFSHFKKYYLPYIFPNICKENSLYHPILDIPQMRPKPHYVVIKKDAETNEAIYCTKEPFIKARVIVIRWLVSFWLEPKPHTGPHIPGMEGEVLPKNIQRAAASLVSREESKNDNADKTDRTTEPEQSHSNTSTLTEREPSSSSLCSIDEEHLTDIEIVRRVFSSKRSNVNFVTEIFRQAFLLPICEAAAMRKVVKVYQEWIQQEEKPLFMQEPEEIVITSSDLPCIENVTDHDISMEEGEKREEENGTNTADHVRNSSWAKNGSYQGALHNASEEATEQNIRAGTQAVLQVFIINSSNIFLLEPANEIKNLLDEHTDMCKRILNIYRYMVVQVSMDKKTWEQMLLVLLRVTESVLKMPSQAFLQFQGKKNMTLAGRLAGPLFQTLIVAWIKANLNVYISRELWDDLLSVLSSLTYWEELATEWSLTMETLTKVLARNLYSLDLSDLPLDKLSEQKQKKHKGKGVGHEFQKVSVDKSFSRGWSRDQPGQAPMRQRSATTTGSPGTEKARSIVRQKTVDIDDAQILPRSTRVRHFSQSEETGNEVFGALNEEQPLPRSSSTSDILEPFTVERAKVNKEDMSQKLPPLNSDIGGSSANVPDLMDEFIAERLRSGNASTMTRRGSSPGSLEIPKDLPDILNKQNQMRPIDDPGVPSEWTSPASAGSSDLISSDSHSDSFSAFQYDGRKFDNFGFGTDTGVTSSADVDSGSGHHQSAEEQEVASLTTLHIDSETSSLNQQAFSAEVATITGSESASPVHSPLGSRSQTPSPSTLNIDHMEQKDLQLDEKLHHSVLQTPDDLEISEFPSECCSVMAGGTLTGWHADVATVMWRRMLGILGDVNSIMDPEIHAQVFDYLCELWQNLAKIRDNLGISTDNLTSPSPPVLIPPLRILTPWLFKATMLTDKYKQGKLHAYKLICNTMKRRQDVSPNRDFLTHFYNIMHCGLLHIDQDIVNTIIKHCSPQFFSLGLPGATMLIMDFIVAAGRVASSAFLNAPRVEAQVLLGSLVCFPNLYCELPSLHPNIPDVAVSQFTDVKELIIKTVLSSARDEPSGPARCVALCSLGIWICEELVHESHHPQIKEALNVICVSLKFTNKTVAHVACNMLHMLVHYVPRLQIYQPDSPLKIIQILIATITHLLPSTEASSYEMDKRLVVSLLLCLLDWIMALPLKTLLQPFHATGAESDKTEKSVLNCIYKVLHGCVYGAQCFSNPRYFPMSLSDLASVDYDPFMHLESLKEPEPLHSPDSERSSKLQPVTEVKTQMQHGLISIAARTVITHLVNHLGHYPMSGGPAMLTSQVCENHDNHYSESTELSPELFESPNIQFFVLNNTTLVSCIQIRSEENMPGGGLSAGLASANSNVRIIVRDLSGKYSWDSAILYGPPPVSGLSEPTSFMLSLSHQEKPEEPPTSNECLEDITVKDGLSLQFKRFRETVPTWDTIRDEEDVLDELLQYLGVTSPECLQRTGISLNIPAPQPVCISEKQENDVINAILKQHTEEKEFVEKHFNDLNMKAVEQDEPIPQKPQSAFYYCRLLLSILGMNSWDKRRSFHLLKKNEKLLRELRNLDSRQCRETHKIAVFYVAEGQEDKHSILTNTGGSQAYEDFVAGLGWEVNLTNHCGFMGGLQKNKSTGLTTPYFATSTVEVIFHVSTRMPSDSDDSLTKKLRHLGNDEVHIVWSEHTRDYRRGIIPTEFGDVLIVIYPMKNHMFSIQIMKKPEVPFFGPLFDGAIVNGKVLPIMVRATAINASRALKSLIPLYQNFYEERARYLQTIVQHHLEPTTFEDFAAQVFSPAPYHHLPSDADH
UniProt P20936: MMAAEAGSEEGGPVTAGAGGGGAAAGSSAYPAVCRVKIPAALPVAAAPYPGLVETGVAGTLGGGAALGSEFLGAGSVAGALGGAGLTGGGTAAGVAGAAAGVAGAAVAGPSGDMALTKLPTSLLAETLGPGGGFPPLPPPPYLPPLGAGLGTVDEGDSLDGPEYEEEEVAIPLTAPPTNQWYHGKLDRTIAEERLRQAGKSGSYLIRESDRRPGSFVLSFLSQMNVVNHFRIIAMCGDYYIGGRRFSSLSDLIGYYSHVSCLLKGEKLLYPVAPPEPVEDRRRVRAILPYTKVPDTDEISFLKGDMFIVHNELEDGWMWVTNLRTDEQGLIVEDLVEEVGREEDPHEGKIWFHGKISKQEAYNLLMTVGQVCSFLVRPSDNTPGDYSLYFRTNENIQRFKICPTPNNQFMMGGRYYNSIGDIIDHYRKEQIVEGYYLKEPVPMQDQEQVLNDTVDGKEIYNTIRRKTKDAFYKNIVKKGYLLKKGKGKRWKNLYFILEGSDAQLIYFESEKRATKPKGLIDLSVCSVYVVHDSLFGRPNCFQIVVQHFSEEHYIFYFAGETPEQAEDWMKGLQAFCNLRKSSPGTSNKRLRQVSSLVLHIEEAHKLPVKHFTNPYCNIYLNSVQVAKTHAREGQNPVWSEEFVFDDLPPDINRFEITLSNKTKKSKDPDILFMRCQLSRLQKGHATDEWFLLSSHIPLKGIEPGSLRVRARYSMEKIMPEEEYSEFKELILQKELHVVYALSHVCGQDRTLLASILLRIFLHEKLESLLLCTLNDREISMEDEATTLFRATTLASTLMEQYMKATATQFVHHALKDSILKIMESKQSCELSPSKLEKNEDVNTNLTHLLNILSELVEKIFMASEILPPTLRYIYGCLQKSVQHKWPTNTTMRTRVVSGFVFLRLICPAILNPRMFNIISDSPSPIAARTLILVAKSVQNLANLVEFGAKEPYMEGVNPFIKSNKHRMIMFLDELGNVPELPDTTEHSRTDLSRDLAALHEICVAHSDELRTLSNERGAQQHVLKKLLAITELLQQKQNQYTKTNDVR
UniProt Q9H082: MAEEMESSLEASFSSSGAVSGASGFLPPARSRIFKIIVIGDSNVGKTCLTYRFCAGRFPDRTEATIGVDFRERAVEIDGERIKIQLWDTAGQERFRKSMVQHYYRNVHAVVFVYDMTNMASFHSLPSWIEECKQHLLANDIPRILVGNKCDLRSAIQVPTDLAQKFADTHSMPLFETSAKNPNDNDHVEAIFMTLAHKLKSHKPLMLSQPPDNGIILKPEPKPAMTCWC
UniProt O95716: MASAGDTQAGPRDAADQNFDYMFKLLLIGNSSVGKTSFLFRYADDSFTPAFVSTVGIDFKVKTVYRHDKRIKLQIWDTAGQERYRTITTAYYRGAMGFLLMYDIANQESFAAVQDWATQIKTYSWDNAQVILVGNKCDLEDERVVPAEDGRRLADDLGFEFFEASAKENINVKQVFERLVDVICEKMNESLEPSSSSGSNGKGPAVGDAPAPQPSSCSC
UniProt Q9H2M9: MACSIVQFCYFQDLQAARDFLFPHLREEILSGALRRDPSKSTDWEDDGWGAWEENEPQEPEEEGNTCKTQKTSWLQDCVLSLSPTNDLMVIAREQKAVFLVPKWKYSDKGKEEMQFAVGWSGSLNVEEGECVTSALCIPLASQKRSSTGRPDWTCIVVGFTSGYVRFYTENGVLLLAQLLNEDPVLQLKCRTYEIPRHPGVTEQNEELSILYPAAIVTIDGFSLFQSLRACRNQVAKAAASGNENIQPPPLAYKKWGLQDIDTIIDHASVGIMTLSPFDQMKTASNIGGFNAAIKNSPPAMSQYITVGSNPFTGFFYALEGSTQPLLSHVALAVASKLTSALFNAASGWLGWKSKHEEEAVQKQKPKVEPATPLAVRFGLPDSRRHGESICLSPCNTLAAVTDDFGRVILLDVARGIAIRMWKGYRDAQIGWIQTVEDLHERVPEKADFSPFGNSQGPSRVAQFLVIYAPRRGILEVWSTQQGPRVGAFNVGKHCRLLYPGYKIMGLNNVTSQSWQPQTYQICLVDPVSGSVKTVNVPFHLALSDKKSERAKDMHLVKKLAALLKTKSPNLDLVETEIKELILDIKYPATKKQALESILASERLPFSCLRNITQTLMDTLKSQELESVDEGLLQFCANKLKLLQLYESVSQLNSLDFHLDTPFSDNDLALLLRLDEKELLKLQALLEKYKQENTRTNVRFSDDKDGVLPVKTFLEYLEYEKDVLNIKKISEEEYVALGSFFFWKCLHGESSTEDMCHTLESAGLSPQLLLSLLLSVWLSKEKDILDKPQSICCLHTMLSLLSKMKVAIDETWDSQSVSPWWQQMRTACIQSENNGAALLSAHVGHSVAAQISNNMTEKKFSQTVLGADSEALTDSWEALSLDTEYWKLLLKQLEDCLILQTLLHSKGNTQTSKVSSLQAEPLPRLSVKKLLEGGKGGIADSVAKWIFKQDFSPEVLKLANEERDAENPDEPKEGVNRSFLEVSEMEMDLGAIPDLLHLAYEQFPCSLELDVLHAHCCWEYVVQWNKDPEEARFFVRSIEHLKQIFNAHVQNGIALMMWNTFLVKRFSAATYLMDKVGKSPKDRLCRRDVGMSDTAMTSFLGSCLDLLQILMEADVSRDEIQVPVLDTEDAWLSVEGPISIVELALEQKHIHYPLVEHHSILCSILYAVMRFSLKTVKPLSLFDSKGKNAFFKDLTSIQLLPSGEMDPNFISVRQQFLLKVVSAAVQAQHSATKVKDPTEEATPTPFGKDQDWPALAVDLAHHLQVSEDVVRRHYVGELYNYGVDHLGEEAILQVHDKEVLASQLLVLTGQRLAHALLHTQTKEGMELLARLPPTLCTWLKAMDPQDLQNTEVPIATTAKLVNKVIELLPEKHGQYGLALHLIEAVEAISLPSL
UniProt Q8TDY2, whole entry, looked up: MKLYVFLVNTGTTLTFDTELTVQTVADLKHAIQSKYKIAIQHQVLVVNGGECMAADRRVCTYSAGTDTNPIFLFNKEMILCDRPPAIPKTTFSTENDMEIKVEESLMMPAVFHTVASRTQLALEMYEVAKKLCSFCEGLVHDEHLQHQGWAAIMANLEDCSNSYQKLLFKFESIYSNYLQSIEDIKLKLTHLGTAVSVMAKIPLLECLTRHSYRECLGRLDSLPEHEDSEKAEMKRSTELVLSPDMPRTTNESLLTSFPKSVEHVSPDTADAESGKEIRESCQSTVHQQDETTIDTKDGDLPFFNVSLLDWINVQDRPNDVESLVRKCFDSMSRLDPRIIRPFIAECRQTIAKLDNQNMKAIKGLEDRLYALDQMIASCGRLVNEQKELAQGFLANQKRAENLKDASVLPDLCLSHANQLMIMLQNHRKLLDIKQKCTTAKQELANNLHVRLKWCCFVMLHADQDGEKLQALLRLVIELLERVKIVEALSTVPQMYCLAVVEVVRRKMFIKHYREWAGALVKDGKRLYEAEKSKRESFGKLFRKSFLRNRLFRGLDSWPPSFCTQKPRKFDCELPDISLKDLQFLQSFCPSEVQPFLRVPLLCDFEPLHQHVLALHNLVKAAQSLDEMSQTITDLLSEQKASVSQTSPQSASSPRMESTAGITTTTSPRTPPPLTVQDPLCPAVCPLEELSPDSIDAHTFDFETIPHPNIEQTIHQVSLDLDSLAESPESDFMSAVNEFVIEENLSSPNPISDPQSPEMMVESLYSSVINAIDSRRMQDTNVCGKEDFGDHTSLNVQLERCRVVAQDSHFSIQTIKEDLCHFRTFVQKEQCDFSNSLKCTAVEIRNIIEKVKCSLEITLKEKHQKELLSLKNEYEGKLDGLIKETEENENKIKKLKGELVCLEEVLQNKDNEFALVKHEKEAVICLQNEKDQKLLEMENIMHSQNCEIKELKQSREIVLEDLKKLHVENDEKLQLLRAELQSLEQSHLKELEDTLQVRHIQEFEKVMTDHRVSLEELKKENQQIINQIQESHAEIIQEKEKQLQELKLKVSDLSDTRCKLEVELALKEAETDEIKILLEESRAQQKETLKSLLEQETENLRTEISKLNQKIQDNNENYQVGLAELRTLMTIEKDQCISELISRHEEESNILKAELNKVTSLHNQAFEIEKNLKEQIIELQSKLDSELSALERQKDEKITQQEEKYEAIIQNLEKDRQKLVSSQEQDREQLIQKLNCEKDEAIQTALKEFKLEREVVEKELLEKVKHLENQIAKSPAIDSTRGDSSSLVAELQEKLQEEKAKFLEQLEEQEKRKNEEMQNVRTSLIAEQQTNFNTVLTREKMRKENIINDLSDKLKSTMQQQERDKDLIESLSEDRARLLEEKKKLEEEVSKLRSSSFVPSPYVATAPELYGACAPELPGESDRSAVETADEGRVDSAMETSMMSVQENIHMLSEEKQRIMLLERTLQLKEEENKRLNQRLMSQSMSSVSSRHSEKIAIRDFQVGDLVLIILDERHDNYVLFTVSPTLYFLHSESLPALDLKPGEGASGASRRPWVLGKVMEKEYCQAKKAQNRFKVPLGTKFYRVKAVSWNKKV

Experiments:
Test in all cases: log2 fold change, soluble protein after heating vs DMSO (PISA); higher = thermal stabilisation; K562 cells, 10 uM, 30 min; active = over 0.2 and 3.5 SD of the protein, either way, in both replicates (recomputed)
[1] = compound: CC[C@@H]1C(=O)N(C)c2cnc(Nc3ccc(C(=O)NC4CCN(C)CC4)cc3OC)nc2N1C1CCCC1
Procedure, shortened: (§1)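 Soluble protein was quantified by TMTpro 16plex LC-MS/MS after channel sums were equalised. It was obtained as the supernatant after 21,000xg for 90 min from pooled aliquots of K562 cells (2×10^6 cells/mL, 10 μM compound, 30 min) heated for 3 min across 48°C-58°C and extracted in PBS with 0.5% NP-40 at 4°C. Thermal stability values are relative to control samples and come from duplicates. They are given as log2 fold changes.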

volasertib = compound: CC[C@@H]1C(=O)N(C)c2cnc(Nc3ccc(C(=O)N[C@H]4CC[C@H](N5CCN(CC6CC6)CC5)CC4)cc3OC)nc2N1C(C)C [volasertib]
Procedure, shortened: as §1

[2] = compound: CC[C@H](C)N1C=C(C2=C(C=C(C=C21)C3=CN=C(C=C3)N4CCNCC4)C(=O)NCC5=C(C=C(NC5=O)C)C)C
Procedure, shortened: as §1

epoxomicin = compound: CC[C@H](C)[C@@H](C(=O)N[C@@H]([C@@H](C)O)C(=O)N[C@@H](CC(C)C)C(=O)[C@]1(CO1)C)NC(=O)[C@H]([C@@H](C)CC)N(C)C(=O)C [epoxomicin]
Procedure, shortened: as §1

[3] = compound: CCn1c(C(=O)N(C2CC2)C2CC2)cc2c3c(ncn3C)c(Nc3cc(C)n(C)n3)nc21
Procedure, shortened: as §1

[4] = compound: CCn1cc(-c2ccnc3[nH]c(-c4cccc(CN(C)C)c4)cc23)c(-c2ccc(NC(=O)N(C)C)cc2)n1
Procedure, shortened: as §1

[5] = compound: CN(C)CC(=O)Nc1ccc2[nH]c(=O)c3ccccc3c2c1
Procedure, shortened: as §1

rosiglitazone = compound: CN(CCOC1=CC=C(C=C1)C[C@H]2C(=O)NC(=O)S2)C3=CC=CC=N3 (racemic) [rosiglitazone]
Procedure, shortened: as §1

[6] = compound: CN1C2=C(C3=C1C(=O)N(N=C3)CC4=CC(=CC=C4)N)SC(=C2)S(=O)C
Procedure, shortened: as §1

[7] = compound: CN1CCC(CNc2ccc3ncc(-c4cccc(OC(F)(F)F)c4)n3n2)CC1
Procedure, shortened: as §1

Measured: log2 fold change

RAD51C (UniProt O43502)
inactive: [1] 0.027 | volasertib -0.03 | [2] 0.068 | epoxomicin 0.031 | [3] -0.011 | [4] -0.019 | [5] 0.104 | rosiglitazone 0.044 | [6] -0.076 | [7] 0.081

RBM26 isoform 2 (UniProt Q5T8P6)
inactive: [1] -0.207 | volasertib -0.299 | [2] 0.151 | epoxomicin 0.098 | [4] -0.069 | [5] 0.072 | [6] -0.011 | [7] -0.177

RAB8B (UniProt Q92930)
inactive: [1] 0.036 | volasertib 0.033 | [2] -0.039 | epoxomicin 0.229 | [4] 0.003 | [5] 0.013 | [6] -0.05 | [7] 0.227

RALGAPA1 isoform 6 (UniProt Q6GYQ0)
inactive: [1] -0.107 | volasertib -0.518 | [2] -0.303 | epoxomicin -0.327 | [3] 0.02 | [5] -0.006 | rosiglitazone -0.15 | [6] 0.159

RAP1GDS1 isoform 5 (UniProt P52306)
inactive: [1] -0.018 | volasertib -0.27 | [2] 0.077 | epoxomicin 0 | [4] -0.008 | [5] -0.017 | [6] -0.012 | [7] -0.002

RBM12 (UniProt Q9NTZ6)
inactive: [1] -0.181 | [2] 0.114 | epoxomicin 0.087 | [4] -0.049 | [5] 0.053 | [6] -0.033 | [7] -0.139
active: volasertib -0.437

RBIS (UniProt Q8N0T1)
inactive: [1] 0.105 | volasertib 0.06 | [2] -0.012 | epoxomicin 0.204 | [4] 0.075 | [5] -0.108 | [6] 0.026 | [7] -0.034

RBBP5 isoform 2 (UniProt Q15291)
inactive: [1] -0.09 | volasertib -0.107 | [2] -0.166 | epoxomicin -0.232 | [3] 0.005 | [4] -0.185 | [5] -0.152 | rosiglitazone 0.147 | [7] 0.085

RASA1 (UniProt P20936)
inactive: [1] 0.109 | volasertib -0.173 | [2] 0.069 | epoxomicin -0.065 | [3] 0.006 | [5] -0.067 | [6] -0.077

RAB20 (UniProt Q9NX57)
inactive: [1] 0.067 | volasertib 0.061 | [2] -0.036 | epoxomicin 0.008 | [3] 0.029 | [4] 0 | [5] -0.019 | rosiglitazone -0.017 | [6] 0.006 | [7] 0.048

RBM25 (UniProt P49756)
inactive: [1] 0.024 | volasertib -0.239 | [2] -0.019 | epoxomicin 0.015 | [4] 0.074 | [5] 0.041 | [6] 0.086 | [7] -0.07

RASA2 (UniProt Q15283)
inactive: [1] 0.011 | volasertib -0.028 | epoxomicin -0.092 | [4] -0.026 | [5] -0.141 | rosiglitazone 0.203 | [6] 0.308 | [7] -0.157

Taken from the entries so far (two entries):
RAB20 (UniProt Q9NX57)
inactive: [1] 0.067 | volasertib 0.061 | [2] -0.036 | epoxomicin 0.008 | [3] 0.029 | [4] 0 | [5] -0.019 | rosiglitazone -0.017 | [6] 0.006 | [7] 0.048

RBM25 (UniProt P49756)
inactive: [1] 0.024 | volasertib -0.239 | [2] -0.019 | epoxomicin 0.015 | [4] 0.074 | [5] 0.041 | [6] 0.086 | [7] -0.07

The results go on.

RAB33B (UniProt Q9H082)
inactive: [1] -0.016 | volasertib -0.014 | [2] -0.04 | epoxomicin -0.009 | [4] 0.09 | [5] -0.031 | [6] -0.067 | [7] -0.006

RAB3D (UniProt O95716)
inactive: [1] 0.039 | volasertib 0.025 | [2] 0.097 | [4] 0.041 | [5] -0.098 | [6] 0.103 | [7] 0.129

RAB27B (UniProt O00194)
inactive: [1] 0.072 | volasertib 0.085 | [2] 0.005 | [3] -0.025 | [4] -0.181 | [5] -0.075 | rosiglitazone -0.043 | [6] -0.059 | [7] 0.22

RAPGEF5, A0A590UJR0
inactive: [1] 0.024 | volasertib -0.66 | [2] -0.029 | [3] -0.101 | [4] -0.09 | [5] -0.207 | rosiglitazone 0.104 | [6] 0.163 | [7] -0.039

RAB3GAP2 (UniProt Q9H2M9)
inactive: [1] -0.101 | volasertib -0.358 | [2] 0.044 | epoxomicin 0.022 | [4] 0.088 | [5] 0.04 | [6] 0.133 | [7] -0.132

RBM27 (UniProt Q9P2N5)
active: volasertib -0.296
inactive: [1] -0.141 | [2] 0.014 | epoxomicin 0.014 | [4] 0.001 | [5] 0.027 | [6] -0.013 | [7] -0.068

RALGAPB (UniProt Q86X10)
inactive: [1] 0.039 | volasertib -0.415 | [2] 0.053 | epoxomicin -0.04 | rosiglitazone 0.024 | [6] 0.007

RAD51D (UniProt O75771)
inactive: [1] 0.042 | volasertib -0.119 | [2] 0.147 | [3] 0 | [4] 0.013 | [5] -0.11 | rosiglitazone -0.055 | [6] 0.026 | [7] -0.18

RB1CC1 (UniProt Q8TDY2)
inactive: [1] 0.051 | volasertib -0.022 | [2] -0.086 | epoxomicin 0.063 | [4] -0.07 | [5] -0.077 | [6] 0.047 | [7] -0.116

RBM22 (UniProt Q9NW64)
active: volasertib -0.3
inactive: [1] -0.027 | [2] 0.002 | epoxomicin -0.009 | [4] 0.061 | [5] -0.058 | [6] 0.011 | [7] -0.003

RANBP2 (UniProt P49792)
inactive: [1] 0.058 | volasertib -0.006 | [2] -0.008 | epoxomicin 0 | [4] 0.099 | [5] 0.026 | [6] -0.033 | [7] -0.052

RAVER1 (UniProt E9PAU2)
inactive: [1] -0.222 | [2] 0.13 | epoxomicin 0.147 | [4] -0.006 | [5] 0.174 | [6] -0.007 | [7] -0.375
active: volasertib -1.93

RALY (UniProt Q9UKM9)
inactive: [1] 0.113 | volasertib -0.05 | [2] 0.136 | epoxomicin -0.277 | [4] 0.173 | [5] 0.001 | [6] 0.358 | [7] 0.092

RAC1 (UniProt P63000)
active: [7] 0.35
inactive: [1] -0.024 | volasertib 0.03 | [2] 0.026 | epoxomicin 0.019 | [4] 0.044 | [5] 0.05 | [6] -0.067

RAF1 isoform 2 (UniProt P04049)
inactive: [1] 0.135 | volasertib -0.361 | epoxomicin -0.003 | [4] -0.241 | [5] 0.028 | [6] -0.129 | [7] -0.222

RABGGTA (UniProt Q92696)
inactive: [1] 0.029 | volasertib -0.087 | [2] -0.013 | epoxomicin 0.021 | [4] -0.051 | [5] -0.015 | [6] -0.111 | [7] -0.023

RASSF3 (UniProt Q86WH2)
inactive: [1] -0.055 | volasertib -0.014 | [2] 0.005 | [3] -0.062 | [4] 0.051 | [5] -0.072 | rosiglitazone 0.045 | [7] 0.273

RBM33 (UniProt Q96EV2)
inactive: [1] -0.101 | volasertib -0.105 | [2] 0.035 | epoxomicin 0.022 | [4] -0.005 | [5] -0.025 | [6] 0.023 | [7] 0.004

RAC3 (UniProt P60763)
inactive: [1] 0.039 | volasertib 0.075 | [2] -0.082 | epoxomicin -0.008 | [4] -0.149 | [5] 0 | [6] -0.095 | [7] 0.035
